Laboratory results as given in PMC9118164.
Results are given in words; binding and its absence hold for the method and conditions named. Binding seen in cells or lysates may run through a third protein. A yes stands for co-enrichment or nearness to the bait. Other partners may have been found. Sequences can lack the tags named with a protein.

T1: Chl1-Flag (Schizosaccharomyces pombe) (UniProt O14147)
T1 sequence: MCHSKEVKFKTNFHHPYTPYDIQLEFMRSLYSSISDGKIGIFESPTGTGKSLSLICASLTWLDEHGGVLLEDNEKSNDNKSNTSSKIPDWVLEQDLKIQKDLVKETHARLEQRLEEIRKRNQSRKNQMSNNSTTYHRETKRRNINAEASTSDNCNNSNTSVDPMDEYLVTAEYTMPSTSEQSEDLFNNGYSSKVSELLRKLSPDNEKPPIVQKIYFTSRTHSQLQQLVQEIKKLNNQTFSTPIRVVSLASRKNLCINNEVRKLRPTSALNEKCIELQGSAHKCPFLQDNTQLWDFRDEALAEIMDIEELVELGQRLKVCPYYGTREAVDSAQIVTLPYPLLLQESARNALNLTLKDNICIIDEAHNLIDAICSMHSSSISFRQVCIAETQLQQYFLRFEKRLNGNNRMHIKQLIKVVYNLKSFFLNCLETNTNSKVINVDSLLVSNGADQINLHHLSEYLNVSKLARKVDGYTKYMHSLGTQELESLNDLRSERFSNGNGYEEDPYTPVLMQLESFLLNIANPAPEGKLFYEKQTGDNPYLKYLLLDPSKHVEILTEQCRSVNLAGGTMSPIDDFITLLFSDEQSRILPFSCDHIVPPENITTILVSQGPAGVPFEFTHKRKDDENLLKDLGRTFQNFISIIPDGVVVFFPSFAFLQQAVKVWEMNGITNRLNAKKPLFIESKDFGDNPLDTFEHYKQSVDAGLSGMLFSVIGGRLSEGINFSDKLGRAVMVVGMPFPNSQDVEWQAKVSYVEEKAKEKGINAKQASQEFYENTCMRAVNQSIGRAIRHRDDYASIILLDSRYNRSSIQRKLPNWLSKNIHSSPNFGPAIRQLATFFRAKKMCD


Target: T1, Chl1-Flag (Schizosaccharomyces pombe)
Assay: affinity purification with mass spectrometry; Chl1-Flag captured from S. pombe lysate on anti-Flag M2 affinity agarose beads; HC buffer (150 mM HEPES-KOH pH 7.6, 1 mM EDTA, 250 mM KCl, 10% glycerol, 1 mM DTT); eluted with 3xFlag peptide; mass spectrometry

| binding | Binder |
| --- | --- |
| binds | Ssb2 (protein, UniProt Q92373 1-279) MAYDAFGKPGYGPDFNSAFSPGMGGGAGFNEYDQSSQPSVDRQQGAGNKLRPVTIKQILNASQVHADAEFKIDGVEVGQVTFVGVLRNIHAQTTNTTYQIEDGTGMIEVRHWEHIDALSELATDTYVRVYGNIKIFSGKIYIASQYIRTIKDHNEVHFHFLEAIAVHLHFTQKANAVNGANAPGYGTSNALGYNNISSNGAANSLEQKLAEYSLTPAQMTVMQAIHSAPETNEGVHVRQLAQSVGPGIDLTAVTDFLQQEGIIYTTIDENHFKSVLQDQ |
| binds | Ssb1 (protein, UniProt Q92372 1-609) MAERLSVGALRIINTSDASSFPPNPILQVLTVKELNSNPTSGAPKRYRVVLSDSINYAQSMLSTQLNHLVAENKLQKGAFVQLTQFTVNVMKERKILIVLGLNVLTELGVMDKIGNPAGLETVDALRQQQNEQNNASAPRTGISTSTNSFYGNNAAATAPAPPPMMKKPAAPNSLSTIIYPIEGLSPYQNKWTIRARVTNKSEVKHWHNQRGEGKLFSVNLLDESGEIRATGFNDQVDAFYDILQEGSVYYISRCRVNIAKKQYTNVQNEYELMFERDTEIRKAEDQTAVPVAKFSFVSLQEVGDVAKDAVIDVIGVLQNVGPVQQITSRATSRGFDKRDITIVDQTGYEMRVTLWGKTAIEFSVSEESILAFKGVKVNDFQGRSLSMLTSSTMSVDPDIQESHLLKGWYDGQGRGQEFAKHSVISSTLSTTGRSAERKNIAEVQAEHLGMSETPDYFSLKGTIVYIRKKNVSYPACPAADCNKKVFDQGGSWRCEKCNKEYDAPQYRYIITIAVGDHTGQLWLNVFDDVGKLIMHKTADELNDLQENDENAFMNCMAEACYMPYIFQCRAKQDNFKGEMRVRYTVMSINQMDWKEESKRLINFIESAQ |
